PubChem BioAssay AID504764 – Drosophila RNAi Screening Center | 2011
Test: 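Genome-wide screen for regulators of Notch-driven gene expression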 (primary screen). Cells: Drosophila Kc167 cells. Reagent: long dsRNA against Drosophila genes. Timing: about 5 days (4 days dsRNA, then 24 h after transfection). Conditions: transfection of constitutively active membrane-tethered Notch lacking the extracellular domain, read 24 h later. Measured: 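Firefly luciferase from an E(spl)m3 reporter with active Notch, plus control-promoter and uninduced reporter wells for normalisation; unnormalised counts, duplicate wells a and b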. Scale: induced reporter light, run 1, well a and induced reporter light, run 1, well b: higher = more light from the Notch target reporter with active Notch; control promoter light, run 1, well a and control promoter light, run 1, well b: higher = more light from the viral control promoter (cell number, transfection, viability); uninduced reporter light, run 1, well a: higher = more light from the Notch target reporter without active Notch. Hit rule: 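Wells with low control signal or poorly matching duplicates excluded; duplicates averaged; per source plate, z beyond ±2 for induced/control log2 ratio or beyond ±1.8 for induced/uninduced marks a hit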. Calls: active = modifier hit (raised or lowered Notch signal); inactive = not a hit.
The screen tested about 22,000 reagents; below is a random part of those with a known target gene and a result. In the full data, 403 (1.9%) were called active. 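Unnormalised raw counts per well; ratio z-scores behind the hit calls and whether each hit raises or lowers signal are not deposited.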 The numbers tell different reagents against one gene apart. Reagent sequences are not shown. Not given: the amount of reagent.

lectin-29Ca — induced reporter light, run 1, well a: 1.45e5; induced reporter light, run 1, well b: 1.91e5; control promoter light, run 1, well a: 85155; control promoter light, run 1, well b: 1.25e5; uninduced reporter light, run 1, well a: 19365; Call: inactive
bwa (brain washing) #1 — induced reporter light, run 1, well a: 82045; induced reporter light, run 1, well b: 75925; control promoter light, run 1, well a: 85100; control promoter light, run 1, well b: 66425; uninduced reporter light, run 1, well a: 8238; Call: inactive
bwa (brain washing) #2 — induced reporter light, run 1, well a: 57895; induced reporter light, run 1, well b: 42660; control promoter light, run 1, well a: 49705; control promoter light, run 1, well b: 42905; uninduced reporter light, run 1, well a: 2750; Call: inactive
Cul4 (Cullin 4) — induced reporter light, run 1, well a: 23315; induced reporter light, run 1, well b: 20565; control promoter light, run 1, well a: 18638; control promoter light, run 1, well b: 13965; uninduced reporter light, run 1, well a: 2420; Call: inactive
CG6908 — induced reporter light, run 1, well a: 78405; induced reporter light, run 1, well b: 77645; control promoter light, run 1, well a: 77310; control promoter light, run 1, well b: 65345; uninduced reporter light, run 1, well a: 5405; Call: inactive
SoYb — induced reporter light, run 1, well a: 75515; induced reporter light, run 1, well b: 1.14e5; control promoter light, run 1, well a: 64835; control promoter light, run 1, well b: 85240; uninduced reporter light, run 1, well a: 14625; Call: inactive
Cdc37 (Cell division cycle 37) — induced reporter light, run 1, well a: 68055; induced reporter light, run 1, well b: 48400; control promoter light, run 1, well a: 63565; control promoter light, run 1, well b: 58970; uninduced reporter light, run 1, well a: 3132; Call: inactive

Continued (2 carried over from the part before).
SoYb — induced reporter light, run 1, well a: 75515; induced reporter light, run 1, well b: 1.14e5; control promoter light, run 1, well a: 64835; control promoter light, run 1, well b: 85240; uninduced reporter light, run 1, well a: 14625; Call: inactive
Cdc37 (Cell division cycle 37) — induced reporter light, run 1, well a: 68055; induced reporter light, run 1, well b: 48400; control promoter light, run 1, well a: 63565; control promoter light, run 1, well b: 58970; uninduced reporter light, run 1, well a: 3132; Call: inactive
CG15705 — induced reporter light, run 1, well a: 94430; induced reporter light, run 1, well b: 84910; control promoter light, run 1, well a: 95645; control promoter light, run 1, well b: 1.04e5; uninduced reporter light, run 1, well a: 6830; Call: inactive
COX7AL (Cytochrome c oxidase subunit 7A-like) — induced reporter light, run 1, well a: 1.08e5; induced reporter light, run 1, well b: 1.02e5; control promoter light, run 1, well a: 85725; control promoter light, run 1, well b: 59485; uninduced reporter light, run 1, well a: 3895; Call: inactive
Mst85C — induced reporter light, run 1, well a: 1.08e5; induced reporter light, run 1, well b: 94665; control promoter light, run 1, well a: 96020; control promoter light, run 1, well b: 95215; uninduced reporter light, run 1, well a: 7000; Call: inactive
achi (achintya) — induced reporter light, run 1, well a: 1.10e5; induced reporter light, run 1, well b: 1.23e5; control promoter light, run 1, well a: 1.32e5; control promoter light, run 1, well b: 1.41e5; uninduced reporter light, run 1, well a: 9285; Call: inactive
PCNA2 (Proliferating cell nuclear antigen 2) — induced reporter light, run 1, well a: 23415; induced reporter light, run 1, well b: 26625; control promoter light, run 1, well a: 28405; control promoter light, run 1, well b: 26710; uninduced reporter light, run 1, well a: 1770; Call: inactive
CG9826 — induced reporter light, run 1, well a: 2.25e5; induced reporter light, run 1, well b: 2.04e5; control promoter light, run 1, well a: 2.10e5; control promoter light, run 1, well b: 2.03e5; uninduced reporter light, run 1, well a: 17955; Call: inactive
Smyd3 (SET and MYND domain containing, class 3) — induced reporter light, run 1, well a: 1.35e5; induced reporter light, run 1, well b: 1.41e5; control promoter light, run 1, well a: 2.14e5; control promoter light, run 1, well b: 2.53e5; uninduced reporter light, run 1, well a: 9195; Call: inactive
dbo (diablo) — induced reporter light, run 1, well a: 1.81e5; induced reporter light, run 1, well b: 1.42e5; control promoter light, run 1, well a: 1.87e5; control promoter light, run 1, well b: 1.84e5; uninduced reporter light, run 1, well a: 8685; Call: inactive
koi (klaroid) — induced reporter light, run 1, well a: 2.54e5; induced reporter light, run 1, well b: 2.19e5; control promoter light, run 1, well a: 3.23e5; control promoter light, run 1, well b: 3.44e5; uninduced reporter light, run 1, well a: 22455; Call: inactive
CG3223 — induced reporter light, run 1, well a: 96040; induced reporter light, run 1, well b: 96525; control promoter light, run 1, well a: 81525; control promoter light, run 1, well b: 67595; uninduced reporter light, run 1, well a: 7925; Call: inactive
Pmm2 (Phosphomannomutase type 2) — induced reporter light, run 1, well a: 1.64e5; induced reporter light, run 1, well b: 1.24e5; control promoter light, run 1, well a: 2.33e5; control promoter light, run 1, well b: 1.50e5; uninduced reporter light, run 1, well a: 7130; Call: inactive
